This note sets out measurements from patent US8592581B2, “Trisubstituted purine derivatives” (Cyclacel Limited, priority 2007, dated 2013).

The subject of the test is H460 non-small cell lung cancer (NSCLC) cell line. Description: Alamar blue cytotoxicity assay in H460 NSCLC tumour cell line. The class given is cell-based. To be noted: Homo sapiens, NCI-H460; H460 cells, 72 hours, average of three independent experiments. The method, then: In order to determine the cellular potency of the compounds, the cytotoxicity of each compound was determined against the H460 non-small cell lung cancer (NSCLC) cell line. Standard cytotoxicity methods were performed as follows: H460 cells were seeded in 96-well plates appropriately for their doubling time (3000 cells per well) in RPMI media containing 10% FCS and incubated overnight at 37° C., 5% CO2. The media was removed and 100 μl fresh media containing increasing concentrations of appropriate compound was added and the cells incubated for 72 hours at 37° C., 5% CO2. A 10% stock of alamar blue (Roche, Lewes, United Kingdom) was prepared in medium and 100 μl added to the cells which were incubated for 2 hours. Absorbance was measured on the Wallac Victor 2 1420 multi-label counter at 544-595 nm.
For orientation: Resazurin is reduced to fluorescent resorufin, in cell work by metabolically active cells.

What is called IC50 is the point on the concentration scale where inhibition reaches its midpoint. A higher IC50 goes with weaker potency. In turn, `CC[C@H](CO)Nc1nc(NCc2ccccc2)c2ncn(C(C)C)c2n1` [Seliciclib, seliciclib, reference compound] displayed an IC50 of 12 µM.
